{
  "source": "PubChem BioAssay AID1347076",
  "about": "(National Center for Advancing Translational Sciences (NCATS), 2019)",
  "note": "The campaign covered roughly 400,000 compounds. About 13,000 (3.2%) were called active. The inconclusive results got no clear call from the source; some entries with a clear call stand among them for comparison. Calls come from the whole dose curve; as a rule, active = well fitted cell-killing curve with a large enough effect; inconclusive = small, poorly fitted or top-dose-only effect, or effect the other way; inactive = flat fitted curve, though single readings scatter. A potency beside an inconclusive call is a rough fit, not a confirmed value. % is set by controls: 0 for no effect and ±100 for the full control effect; potency is the fitted concentration of half-maximal effect.",
  "data": [
    {"assay": "qHTS assay for MDR1-selective chemotherapeutics: Primary screen using the drug-selected MDR subline cells KB-V1; note: nearly all actives have a fitted effect of over 60% in size", "settings": "KB-V1 MDR cells viability, CellTiter-Glo, 72 h; activity change, negative = cytotoxicity: at 46.1 µM (top of the series)", "in_short": "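KB-V1 cells (P-gp-expressing MDR subline of KB-3-1) in phenol-red-free DMEM with 10% FBS were exposed to library compounds over a concentration series for 72 h at 37 degrees C. Viability read by CellTiter-Glo luminescence; concentration-effect curves fitted after normalization.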", "values": [
      {"smiles": "Nn1cnc2c(c1=O)C1(CCCCC1)Cc1ccccc1-2", "Potency": "inconclusive: 29.1 µM [cytotoxic, single point]"},
      {"smiles": "Cc1cccc(C2=NN(c3ccccc3)[C@@H](C(=O)N3CCOC3=O)[C@@H]2c2ccc([N+](=O)[O-])cc2)c1", "Potency": "inactive"},
      {"smiles": "O=C(NCCO)c1ccc(-c2nnc(Nc3ccc(O)cc3)c3ccccc23)cc1", "Potency": "inactive"},
      {"smiles": "CC(=O)c1cccc(NC(=O)c2ccc(Br)o2)c1", "Potency": "inconclusive: 23.1 µM [cytotoxic, single point]"},
      {"smiles": "O=C(Nc1ccc2ccccc2n1)c1ccccc1", "activity change, negative = cytotoxicity": "inconclusive: 2.59%"},
      {"smiles": "Cc1cc(Br)cn2c(Cc3ccccc3C(F)(F)F)c(-c3ccc(Cl)cc3)nc12", "Potency": "inconclusive: 16.4 µM [cytotoxic, partial curve, poor fit]"},
      {"smiles": "CN(C)CC(C)(C)NS(=O)(=O)c1ccc(Cl)cc1", "Potency": "inactive"},
      {"smiles": "Cc1ccc(NC(=O)c2cc(S(=O)(=O)N3CCCCC3)c[nH]2)cc1C", "Potency": "inconclusive: 29.1 µM [rising, single point]"},
      {"smiles": "O=C(NNc1nc(-c2ccccc2)c2cc(Br)ccc2n1)c1ccc(S(=O)(=O)N2CCOCC2)cc1", "Potency": "inconclusive: 18.4 µM [cytotoxic, partial curve, poor fit]"},
      {"smiles": "O=C1C(C=NC2CC2)=C(O)c2ccccc21", "Potency": "inconclusive: 11.6 µM [rising, partial curve]"},
      {"smiles": "C=CCn1c(SCc2c(C)noc2C)nc2sc(C)c(C)c2c1=O", "Potency": "inactive"},
      {"smiles": "CCOc1ccc(Br)cc1C(=O)N/N=C/c1cccnc1", "Potency": "inactive"},
      {"smiles": "COc1cc(OC)c(C2=NOC(C(=O)NCc3ccc4c(c3)OCO4)C2)cc1Cl", "note": "(stereo not drawn)", "Potency": "inconclusive: 23.1 µM [cytotoxic, single point]"},
      {"smiles": "CC1CCCCN1S(=O)(=O)c1ccc(C(=O)Nc2nnc(-c3ccccn3)o2)cc1", "note": "(stereo not drawn)", "Potency": "inconclusive: 11.6 µM [cytotoxic, partial curve, poor fit]"},
      {"smiles": "CC1(C)OC2OC3C(CN)OC(c4ccccc4)OC3C2O1", "note": "(stereo not drawn)", "Potency": "inactive"},
      {"smiles": "O=C1NC[C@H](CCCCN2CCN(CC3CCCCC3)C(=O)C2=O)N(CCc2ccccc2)C1=O", "Potency": "inactive"},
      {"smiles": "CCN(c1ccccc1)S(=O)(=O)c1ccc(C(=O)NC2CCN(Cc3ccccc3)CC2)cc1", "Potency": "inconclusive: 18.4 µM [cytotoxic, partial curve, poor fit]"},
      {"smiles": "Nc1nc(NCc2ccc(Cl)cc2)nc(NCCO)c1[N+](=O)[O-]", "Potency": "inconclusive: 18.4 µM [cytotoxic, single point]"},
      {"smiles": "Cc1ccc2nc(N3CCN(C(=O)c4ccccc4F)CC3)c(C#N)cc2c1", "Potency": "inactive"},
      {"smiles": "Oc1ccc2ccccc2c1C=NNc1ccccn1", "Potency": "active: 0.517 µM"},
      {"smiles": "COCc1cc(=O)[nH]c(/N=C(\\N)Nc2ccc(Oc3ccccc3)cc2)n1", "Potency": "active: 18.4 µM"},
      {"smiles": "O=C(NCc1ccccn1)c1ccccc1OCc1ccc(F)cc1", "Potency": "inconclusive: 23.1 µM [cytotoxic, partial curve, poor fit]"},
      {"smiles": "CCCOc1ccc(F)cc1-c1cc(C(=O)Nc2cc(OC)c(OC)c(OC)c2)[nH]n1", "Potency": "inconclusive: 20.6 µM [cytotoxic, single point]"},
      {"smiles": "O=C(Nc1c(C(=O)Nc2cccc(C(F)(F)F)c2)oc2ccccc12)c1cc(=O)c2ccccc2o1", "Potency": "inconclusive: 29.1 µM [rising, single point]"},
      {"smiles": "CC(=O)c1cc2c(=O)c3ccccc3oc2nc1C", "Potency": "inactive"},
      {"smiles": "O=C(c1ccc(Cl)s1)N1CCN(c2nc3ccccc3s2)CC1", "Potency": "inconclusive: 8.2 µM [cytotoxic, partial curve, poor fit]"},
      {"smiles": "Cc1noc(C)c1NC(=O)N(C)C[C@@H]1OCc2cnnn2CCCC(=O)N([C@@H](C)CO)C[C@@H]1C", "Potency": "inactive"},
      {"smiles": "COc1cc(/C=C2\\C(=N)N3N=CSC3=NC2=O)cc(Br)c1OC(=O)c1ccco1", "Potency": "inactive"},
      {"smiles": "CCn1c(SCC(=O)N2CCN(c3ccccc3)CC2)nnc1-c1ccoc1C", "Potency": "inconclusive: 22.4 µM [cytotoxic, single point]"},
      {"smiles": "Cc1cccn2c(=O)cc(COc3ccc(NC(=O)c4cccc(F)c4)cc3)nc12", "Potency": "inconclusive: 23.1 µM [rising, single point]"},
      {"smiles": "CCOC(=O)Cc1csc(NC(=O)c2cc3ccccc3o2)n1", "Potency": "inconclusive: 29.1 µM [cytotoxic, single point]"},
      {"smiles": "Cc1cccc(C(=O)N2CCc3cc(-c4nc(NC(=O)CN5CCCC5)sc4C)ccc32)c1", "Potency": "inactive"},
      {"smiles": "C#CC(C)(C)NC(=O)c1sccc1Oc1ccc(F)cc1[N+](=O)[O-]", "Potency": "inconclusive: 20.6 µM [cytotoxic, single point]"},
      {"smiles": "CC1CCCN(S(=O)(=O)c2ccc(NC(=O)CN3CCN(C)CC3)cc2)C1", "note": "(stereo not drawn)", "Potency": "inconclusive: 25.9 µM [cytotoxic, partial curve, poor fit]"},
      {"smiles": "CCOC(=O)N1CCN(CC(O)COc2ccc(OC)cc2C(C)(C)C)CC1", "note": "(stereo not drawn)", "Potency": "active: 3.66 µM"},
      {"smiles": "CC(C)NC(=O)NC(=O)COC(=O)c1ccc(F)cc1F", "Potency": "inactive"},
      {"smiles": "COc1ccc(C(CC(=O)Nc2ccc(C)cn2)N2Cc3ccccc3C2=O)cc1", "note": "(stereo not drawn)", "Potency": "inconclusive: 9.2 µM [cytotoxic, single point]"},
      {"smiles": "CCn1c(=O)c2cc(C(=O)NCCCN(C)Cc3ccccc3)sc2c2ccccc21", "Potency": "inactive"},
      {"smiles": "COc1cccc(OC(=O)c2ccccc2)c1OC(=O)c1ccccc1", "Potency": "inconclusive: 23.1 µM [cytotoxic, single point]"},
      {"smiles": "Cc1cc(C)cc(NC(=O)c2ccc(CN3CCc4ccccc4C3)cc2)c1", "Potency": "inconclusive: 20.6 µM [cytotoxic, partial curve]"},
      {"smiles": "O=C(NCc1ccc(Cl)cc1)c1ccc2c(c1)NC(=O)C(CS(=O)(=O)Cc1ccccc1Cl)N2", "note": "(stereo not drawn)", "Potency": "inconclusive: 16.4 µM [rising, single point]"},
      {"smiles": "CCSc1nc(-c2ccc(Cl)cc2)nc2c1Cc1c(CO)cnc(C)c1O2", "Potency": "inconclusive: 14.6 µM [rising, partial curve, poor fit]"},
      {"smiles": "O=C(O)c1ccccc1Nc1ccc([N+](=O)[O-])cc1", "Potency": "inconclusive: 16.4 µM [cytotoxic, partial curve, poor fit]"},
      {"smiles": "O=C(CCCCCCN1C(=O)c2ccccc2C1=O)Nc1nccs1", "Potency": "inconclusive: 20.6 µM [cytotoxic, single point]"},
      {"smiles": "CC(C)CNC(=O)C1(N2C(=O)c3ccccc3C2=O)CCCC1", "activity change, negative = cytotoxicity": "inconclusive: -7.34%"},
      {"smiles": "COc1ccc(C(=O)NCC(=O)NCc2cc(=O)n(C)c(=O)n2C)cc1", "Potency": "inconclusive: 29.1 µM [rising, single point]"},
      {"smiles": "COc1ccccc1N1CCN(c2cc(=O)n(-c3ccccc3Cl)c(=O)[nH]2)CC1", "Potency": "inconclusive: 16.4 µM [cytotoxic, single point]"},
      {"smiles": "COc1cc(SC)ccc1C(=O)Nc1nc2ccccc2[nH]1", "Potency": "inconclusive: 6.51 µM [cytotoxic, full curve, poor fit]"},
      {"smiles": "O=C(c1ccccn1)C1CCCN(Cc2nc(Cc3cccc(F)c3)no2)C1", "note": "(stereo not drawn)", "Potency": "inconclusive: 18.4 µM [cytotoxic, single point]"},
      {"smiles": "Cc1ccc(S(=O)(=O)/N=C(\\N)c2ccc(Cl)cc2)cc1", "Potency": "inactive"},
      {"smiles": "Cc1nn(C)c(C)c1C1C(C#N)=C(N)OC2=C1C(=O)CC(C)(C)C2", "note": "(stereo not drawn)", "Potency": "inconclusive: 7.31 µM [rising, partial curve, poor fit]"},
      {"smiles": "Cc1occc1C(=O)N/N=C/c1ccc(OCc2ccccc2)cc1", "Potency": "inactive"},
      {"smiles": "COc1ccc(C(=O)OCC(=O)NCCc2ccc(F)cc2)cc1S(=O)(=O)N1CCOCC1", "Potency": "inactive"},
      {"smiles": "COc1ccc(Nc2nc3ccc(C)cc3cc2C#N)c(OC)c1", "Potency": "inconclusive: 20.6 µM [cytotoxic, partial curve, poor fit]"},
      {"smiles": "CCCn1cc(CN2CCC(Cc3ccccc3)(C(=O)OCC)CC2)c(C)n1", "Potency": "inconclusive: 7.31 µM [cytotoxic, partial curve]"},
      {"smiles": "CCCCn1nnc(NC(=O)c2ccc(-c3cccc(Cl)c3)o2)n1", "Potency": "inconclusive: 11.6 µM [cytotoxic, partial curve]"},
      {"smiles": "Cc1ccc2nc(Cl)c(CN(C(=O)c3cnccn3)C3CCCCC3)cc2c1", "Potency": "inconclusive: 20.6 µM [cytotoxic, partial curve, poor fit]"},
      {"smiles": "Cc1nc(N2CCOCC2)nc(Oc2ccccc2)c1[N+](=O)[O-]", "Potency": "inconclusive: 7.31 µM [cytotoxic, partial curve]"},
      {"smiles": "COc1ccc(-c2cc(C(F)(F)F)n3nc(C(=O)Nc4cccc(C(F)(F)F)c4)c(Br)c3n2)cc1", "Potency": "inconclusive: 29.1 µM [rising, single point]"},
      {"smiles": "CCN(CC(=O)Nc1c(F)cccc1F)C(=O)c1nc2nccc(C)n2n1", "Potency": "inconclusive: 29.1 µM [rising, single point]"},
      {"smiles": "COc1ccc(-c2cn3c(C)c(C(=O)NCCN4CCOCC4)sc3n2)cc1", "Potency": "active: 11.6 µM"},
      {"smiles": "CC(=N\\NC(=O)c1ccc([N+](=O)[O-])cc1)/C(=N/O)C(=O)Nc1ccccc1", "Potency": "inconclusive: 13 µM [rising, single point]"},
      {"smiles": "CC1(C)CC(=O)C2=C(C1)N=C1SCCC(=O)N1C2c1ccc(C(F)(F)F)cc1", "note": "(stereo not drawn)", "Potency": "inconclusive: 11.6 µM [cytotoxic, partial curve]"},
      {"smiles": "CCOC(=O)c1c(C)c(C(=O)Nc2ccc(N(C)C)cc2)c(C)n1CC", "Potency": "active: 4.11 µM"},
      {"smiles": "CN(Cc1ccccc1)c1nc2nonc2nc1N1CCCC(CN2CCCC2=O)C1", "note": "(stereo not drawn)", "Potency": "inconclusive: 9.2 µM [cytotoxic, partial curve]"},
      {"smiles": "CN(C)c1ccc(CNC(=O)C2(C)Cc3c(-c4cccc(C(N)=O)c4)ccnc3O2)cc1", "note": "(stereo not drawn)", "Potency": "inactive"},
      {"smiles": "COC(=O)C1(C(=O)OC)C2CCCCC2N(S(=O)(=O)c2ccc(C)cc2)[C@@H]1CC(C)=O", "note": "(stereo partly drawn)", "Potency": "inconclusive: 1.84 µM [cytotoxic, full curve]"},
      {"smiles": "COc1cc(/C=C2\\SC(=Nc3ccc(Cl)c(C(=O)O)c3)NC2=O)c(Br)c(Br)c1O", "Potency": "inconclusive: 2.91 µM [rising, full curve]"}
    ]}
  ]
}
